Consider four substances from article PMC10286397.

The chains behind the UniProt entries cited, without tags or fusion partners.
UniProt P46937: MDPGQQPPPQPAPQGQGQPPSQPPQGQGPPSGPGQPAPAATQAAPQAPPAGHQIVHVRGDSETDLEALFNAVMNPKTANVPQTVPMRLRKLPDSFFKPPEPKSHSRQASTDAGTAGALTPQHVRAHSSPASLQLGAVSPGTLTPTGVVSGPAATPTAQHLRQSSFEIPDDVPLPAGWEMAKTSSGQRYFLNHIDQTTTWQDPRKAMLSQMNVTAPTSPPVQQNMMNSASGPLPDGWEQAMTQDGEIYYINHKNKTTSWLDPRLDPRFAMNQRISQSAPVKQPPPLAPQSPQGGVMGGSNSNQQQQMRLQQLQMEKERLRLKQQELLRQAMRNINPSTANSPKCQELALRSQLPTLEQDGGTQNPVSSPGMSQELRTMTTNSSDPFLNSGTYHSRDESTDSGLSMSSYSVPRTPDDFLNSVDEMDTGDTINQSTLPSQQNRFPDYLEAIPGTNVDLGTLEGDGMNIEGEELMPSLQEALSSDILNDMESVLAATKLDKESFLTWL
UniProt P54252: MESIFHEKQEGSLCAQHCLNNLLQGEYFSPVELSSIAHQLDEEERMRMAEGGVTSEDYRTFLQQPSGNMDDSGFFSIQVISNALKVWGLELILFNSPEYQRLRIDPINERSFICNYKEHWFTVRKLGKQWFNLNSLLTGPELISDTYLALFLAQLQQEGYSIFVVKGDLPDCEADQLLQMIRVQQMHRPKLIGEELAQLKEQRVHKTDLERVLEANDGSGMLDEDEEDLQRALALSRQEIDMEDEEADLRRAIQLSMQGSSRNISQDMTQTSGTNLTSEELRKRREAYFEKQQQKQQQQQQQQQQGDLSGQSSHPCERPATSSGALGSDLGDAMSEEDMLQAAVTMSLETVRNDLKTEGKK

No constants are given. Whether binding was seen depends on the method and setting. In cells and extracts the contact can be indirect. Some binding calls cover weakened binding; strength is not graded here.

Experiment [1] has as its target YAP (endogenous) (human (endogenous in LnCap)) (UniProt P46937). As to the kind of experiment: co-IP; endogenous proteins in LnCap cells, RIPA lysis buffer; antibody overnight at 4 °C, protein A/G PLUS-Agarose beads; antibody as indicated in the figure.
Experiment [2] deals with Myc-YAP full length (UniProt P46937). As to the kind of experiment: co-IP; HEK293 cells transfected with 2 µg Myc-YAP and Flag-ATXN3 full length or mutants, 24 h, NP-40 lysis buffer; IP with Myc antibody, blot with Flag antibody.
Experiment [3] concerns the target GST-YAP (UniProt P46937). As to the kind of experiment: pull-down; lysate of LnCap cells transfected with Flag-ATXN3 incubated with GST-YAP or GST protein; bound ATXN3 detected by western blot; only the target purified.
In experiment [4] the target is Flag-ATXN3 full length (UniProt P54252). Nature of the experiment: co-IP; HEK293 cells transfected with 2 µg Flag-ATXN3 and Myc-YAP full length or mutants, 24 h, NP-40 lysis buffer; IP with Flag antibody, blot with Myc antibody.

For “ATXN3 (endogenous) (from UniProt P54252 1-361) (enzyme)”, the binding result in experiment [1] is “binds”.

Regarding “Flag-ATXN3 full length (from UniProt P54252 1-361) (enzyme)”, the binding result in experiment [2] is “binds”.

On to “Flag-ATXN3 (in LnCap cells) (from UniProt P54252 1-361) (enzyme)”, for which the binding result in experiment [3] is on record as “binds”.

“Myc-YAP full length (from UniProt P46937 1-504)”: the binding result in experiment [4] is listed as “binds”.
